Measurements published in US20220177870A1.

B1: VHO3-Fc (Fc fusion, not shown: a dimerising Fc or GST)
chain: EVQLLESGGGLVQPGGSLRLSCAASGFTFSTYWMSWVRQAPGKGLEWVSVISGDGGSTYYADSVKGRFTISRDNSKNTLYLQMNSLRAEDTAVYYCAKWKGAGRGPGALGGLDVWGQGTLVTVSS
B2: VHO4-Fc (Fc fusion, not shown: a dimerising Fc or GST)
chain: EVQLLESGGGLVQPGGSLRLSCAASGFTFSSYGMSWVRQAPGKGLEWVSAIWSDGSSTYYADSVKGRFTISRDNSKNTLYLQMNSLRAEDTAVYYCARRTWGHQFDYWGQGTLVTVSS
B3: VHO5-Fc (Fc fusion, not shown: a dimerising Fc or GST)
chain: EVQLLESGGGLVQPGGSLRLSCAASGFTFSSYWMHWVRQAPGKGLEWVSVINYSGSSTYYADSVKGRFTISRDNSKNTLYLQMNSLRAEDTAVYYCAMGTPGELPLDYWGQGTLVTVSS

Molecular target: beta-2-microglobulin (B2M)
Assay: BLI (GatorBio), biotinylated B2M on streptavidin probe, VHO-Fc as analyte, pH 7 and pH 6

Binder	binding
B1	no binding
B2	no binding
B3	no binding

These are yes or no findings as the source states them, for the method shown. Where a sequence is shown, tags or fusion partners need not be part of it.
